Experimental data taken from patent US20090035308A1.
No constants are given. Whether binding was seen depends on the method and setting. Some results given as binding are weak or reduced against the parent protein; the word gives no strength.

By UniProt entry, the sequences of proteins in these tests, tags left out. Where a name states a change or a piece, a line headed by the entry shows the natural chain unless it says otherwise.
UniProt Q9NR61: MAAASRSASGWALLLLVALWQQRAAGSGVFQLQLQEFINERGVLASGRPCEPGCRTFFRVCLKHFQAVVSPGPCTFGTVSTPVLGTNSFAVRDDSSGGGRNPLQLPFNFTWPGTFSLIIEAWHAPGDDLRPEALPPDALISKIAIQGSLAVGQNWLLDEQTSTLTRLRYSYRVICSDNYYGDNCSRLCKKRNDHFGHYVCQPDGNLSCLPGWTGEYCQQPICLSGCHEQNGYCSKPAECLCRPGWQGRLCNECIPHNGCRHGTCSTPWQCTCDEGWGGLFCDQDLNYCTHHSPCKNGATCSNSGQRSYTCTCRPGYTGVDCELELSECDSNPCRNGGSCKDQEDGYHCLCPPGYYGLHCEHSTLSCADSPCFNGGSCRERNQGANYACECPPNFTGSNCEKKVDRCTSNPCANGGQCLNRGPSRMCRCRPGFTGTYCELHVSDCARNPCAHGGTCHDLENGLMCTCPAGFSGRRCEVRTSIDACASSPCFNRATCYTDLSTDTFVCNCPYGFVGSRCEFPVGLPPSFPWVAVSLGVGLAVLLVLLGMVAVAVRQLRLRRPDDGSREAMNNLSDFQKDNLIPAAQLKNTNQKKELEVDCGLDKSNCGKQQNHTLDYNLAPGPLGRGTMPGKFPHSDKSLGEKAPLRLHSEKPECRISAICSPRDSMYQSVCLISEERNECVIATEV

What was measured:
[1] = target: sDll4-AP (extracellular domain of human Dll4 fused to alkaline phosphatase) (human) (UniProt Q9NR61); experiment: ELISA: 4 ug/ml antibody coated, 20 ng soluble Dll4-AP proteins added
[2] = target: sDll4-AP (extracellular domain of human Dll4 fused to alkaline phosphatase) (human) (UniProt Q9NR61); experiment: ELISA: coated antibody, soluble Dll4 proteins fused with alkaline phosphatase

| binding [1] | binding [2] | Binder |
| --- | --- | --- |
| binds | binds | Dll4 antibody clone designated #2-6 (antibody, V domains shown) VH: EVQLQQSGPELEKPGASVKISCKASGYSFTGYNMNWVKQSNGKSLEWIGNIDPYFGGTNYNQKFKGKATLTVDKSSSTAYMQLKSLTSEDSAVYYCARNYDYDGGCFDYWGQGTTLTVSS VL: QAVVTQESALTTSPGETVTLTCRSSTGAVTTSNYANWVQEKPDHLFTGLIGGTNNRAPGVPARFSGSLIGDKAALTITGAQTEDEAIYFCALWYSNHWVFGGGTKLTVLG |
| binds | binds | Dll4 antibody clone designated #61B (antibody, V domains shown) VH: EVQLQQSGPELVKPGASVKMSCKASGYTFTSYVINWVKQKPGQGLEWIGLINPYNDGTKYNEKFKVKATLTSDKSSSTAYMELSSLTSEDSAVYYCASYYYGSRYYFDYWGQGTTLTVSS VL: DIQMTQSSSYLSVSLGGRVTITCKASDHINNWLAWYQQKPGNAPRLLISGATSLETGVPSRFSGSGSGKDYTLSITSLQTEDVATYYCQQYWSIPLTFGAGTKLELK |
